Measurements from patent US20060040881.

Chains of the proteins cited; added tags and fusions are not shown. A line that says so, or that is headed by a name, gives the form on record, which may keep a tag or linker.
Coagulation factor IX/IXa (Sus scrofa), one chain, as listed by the source, chain 2 of 2: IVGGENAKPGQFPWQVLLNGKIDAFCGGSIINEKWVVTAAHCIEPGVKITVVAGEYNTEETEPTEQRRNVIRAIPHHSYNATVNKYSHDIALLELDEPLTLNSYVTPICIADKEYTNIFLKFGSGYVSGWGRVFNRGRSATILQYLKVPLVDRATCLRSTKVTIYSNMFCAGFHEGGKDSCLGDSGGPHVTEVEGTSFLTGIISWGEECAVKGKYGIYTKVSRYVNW
Coagulation factor IX/IXa (Sus scrofa), one chain, as listed by the source, chain 1 of 2: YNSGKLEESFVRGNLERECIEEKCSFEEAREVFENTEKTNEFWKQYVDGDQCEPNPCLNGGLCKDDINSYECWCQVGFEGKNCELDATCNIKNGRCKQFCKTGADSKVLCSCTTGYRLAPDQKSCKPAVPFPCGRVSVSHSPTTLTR

System: Coagulation factor IX/IXa (Sus scrofa)
Assay: inhibition of the protein
Settings: 2'-F on all C and U, 2'-OH A and G, 3' idT, 5' cholesterol, in vivo piglets 0.5 mg/kg, ACT and APTT, less potent than PEG-Apt39, protein in an extract, protein details: endogenous factor in piglet blood, variant of AptA

Sequence: AUGGGGACUAUACCGCGUAAUGCUGCCUCCCCAU [CH-AptA]
- functional effect of the aptamer: active
